This is one part of the list.
How the values were obtained:
Experiment in all cases: log2 fold change, soluble protein after heating vs DMSO (PISA); higher = thermal stabilisation; K562 cells, 10 uM, 30 min; active = over 0.2 and 3.5 SD of the protein, either way, in both replicates (recomputed)
[1] = compound: C1=CC=C(C=C1)[C@H](COC2=CC3=C(C=C2)NC(=O)N3)NC(=O)C4=CC=CN(C4=O)CC5=CC(=C(C=C5)F)F
In short: (§1)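 K562 cells at 2×10^6 cells/mL were treated for 30 min with 10 μM compound, and aliquots were heated for 3 min over 48°C-58°C before pooling. Extraction used PBS with 0.5% NP-40 at 4°C, and soluble protein was the supernatant after 21,000xg for 90 min, measured by TMTpro 16plex LC-MS/MS with channel sums equalised. Thermal stability values, relative to control samples and from duplicates, are log2 fold changes.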

The chains behind the UniProt entries cited, without tags or fusion partners. Where a name states a change or a piece, a line headed by the entry shows the natural chain unless it says otherwise.
UniProt Q02487, whole entry, looked up: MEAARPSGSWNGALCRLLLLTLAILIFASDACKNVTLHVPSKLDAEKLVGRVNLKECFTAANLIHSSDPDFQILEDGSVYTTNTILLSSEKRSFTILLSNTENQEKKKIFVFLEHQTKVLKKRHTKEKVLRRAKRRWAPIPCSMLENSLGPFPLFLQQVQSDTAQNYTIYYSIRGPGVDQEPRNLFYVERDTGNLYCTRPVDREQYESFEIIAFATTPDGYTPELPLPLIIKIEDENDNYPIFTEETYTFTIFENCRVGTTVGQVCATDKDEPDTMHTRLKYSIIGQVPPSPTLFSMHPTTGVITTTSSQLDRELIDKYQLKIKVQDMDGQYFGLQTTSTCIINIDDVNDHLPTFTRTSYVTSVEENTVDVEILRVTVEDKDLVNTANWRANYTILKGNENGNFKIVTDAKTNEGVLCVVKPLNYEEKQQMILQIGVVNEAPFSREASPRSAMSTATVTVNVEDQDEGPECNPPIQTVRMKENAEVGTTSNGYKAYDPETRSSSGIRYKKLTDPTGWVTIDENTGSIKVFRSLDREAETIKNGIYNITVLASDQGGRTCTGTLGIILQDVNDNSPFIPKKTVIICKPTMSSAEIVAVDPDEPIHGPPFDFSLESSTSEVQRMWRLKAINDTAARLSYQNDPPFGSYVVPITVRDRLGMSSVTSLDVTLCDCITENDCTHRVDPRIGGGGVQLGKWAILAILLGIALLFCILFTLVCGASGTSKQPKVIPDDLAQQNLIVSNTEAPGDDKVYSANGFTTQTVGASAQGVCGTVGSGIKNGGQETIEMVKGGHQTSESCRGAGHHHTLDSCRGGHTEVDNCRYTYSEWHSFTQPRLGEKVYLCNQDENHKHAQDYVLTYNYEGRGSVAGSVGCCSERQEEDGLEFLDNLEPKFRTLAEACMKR
UniProt Q9UBS4: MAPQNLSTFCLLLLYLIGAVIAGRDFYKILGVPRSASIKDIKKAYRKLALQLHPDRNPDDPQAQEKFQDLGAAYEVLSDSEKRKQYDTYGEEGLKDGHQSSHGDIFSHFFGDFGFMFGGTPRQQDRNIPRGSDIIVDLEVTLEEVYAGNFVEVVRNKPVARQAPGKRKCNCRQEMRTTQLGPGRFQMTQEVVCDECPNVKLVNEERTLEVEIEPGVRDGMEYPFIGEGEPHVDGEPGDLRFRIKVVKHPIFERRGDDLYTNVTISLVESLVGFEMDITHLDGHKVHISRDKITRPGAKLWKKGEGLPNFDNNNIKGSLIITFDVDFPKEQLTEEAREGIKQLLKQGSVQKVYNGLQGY
UniProt Q8NF50: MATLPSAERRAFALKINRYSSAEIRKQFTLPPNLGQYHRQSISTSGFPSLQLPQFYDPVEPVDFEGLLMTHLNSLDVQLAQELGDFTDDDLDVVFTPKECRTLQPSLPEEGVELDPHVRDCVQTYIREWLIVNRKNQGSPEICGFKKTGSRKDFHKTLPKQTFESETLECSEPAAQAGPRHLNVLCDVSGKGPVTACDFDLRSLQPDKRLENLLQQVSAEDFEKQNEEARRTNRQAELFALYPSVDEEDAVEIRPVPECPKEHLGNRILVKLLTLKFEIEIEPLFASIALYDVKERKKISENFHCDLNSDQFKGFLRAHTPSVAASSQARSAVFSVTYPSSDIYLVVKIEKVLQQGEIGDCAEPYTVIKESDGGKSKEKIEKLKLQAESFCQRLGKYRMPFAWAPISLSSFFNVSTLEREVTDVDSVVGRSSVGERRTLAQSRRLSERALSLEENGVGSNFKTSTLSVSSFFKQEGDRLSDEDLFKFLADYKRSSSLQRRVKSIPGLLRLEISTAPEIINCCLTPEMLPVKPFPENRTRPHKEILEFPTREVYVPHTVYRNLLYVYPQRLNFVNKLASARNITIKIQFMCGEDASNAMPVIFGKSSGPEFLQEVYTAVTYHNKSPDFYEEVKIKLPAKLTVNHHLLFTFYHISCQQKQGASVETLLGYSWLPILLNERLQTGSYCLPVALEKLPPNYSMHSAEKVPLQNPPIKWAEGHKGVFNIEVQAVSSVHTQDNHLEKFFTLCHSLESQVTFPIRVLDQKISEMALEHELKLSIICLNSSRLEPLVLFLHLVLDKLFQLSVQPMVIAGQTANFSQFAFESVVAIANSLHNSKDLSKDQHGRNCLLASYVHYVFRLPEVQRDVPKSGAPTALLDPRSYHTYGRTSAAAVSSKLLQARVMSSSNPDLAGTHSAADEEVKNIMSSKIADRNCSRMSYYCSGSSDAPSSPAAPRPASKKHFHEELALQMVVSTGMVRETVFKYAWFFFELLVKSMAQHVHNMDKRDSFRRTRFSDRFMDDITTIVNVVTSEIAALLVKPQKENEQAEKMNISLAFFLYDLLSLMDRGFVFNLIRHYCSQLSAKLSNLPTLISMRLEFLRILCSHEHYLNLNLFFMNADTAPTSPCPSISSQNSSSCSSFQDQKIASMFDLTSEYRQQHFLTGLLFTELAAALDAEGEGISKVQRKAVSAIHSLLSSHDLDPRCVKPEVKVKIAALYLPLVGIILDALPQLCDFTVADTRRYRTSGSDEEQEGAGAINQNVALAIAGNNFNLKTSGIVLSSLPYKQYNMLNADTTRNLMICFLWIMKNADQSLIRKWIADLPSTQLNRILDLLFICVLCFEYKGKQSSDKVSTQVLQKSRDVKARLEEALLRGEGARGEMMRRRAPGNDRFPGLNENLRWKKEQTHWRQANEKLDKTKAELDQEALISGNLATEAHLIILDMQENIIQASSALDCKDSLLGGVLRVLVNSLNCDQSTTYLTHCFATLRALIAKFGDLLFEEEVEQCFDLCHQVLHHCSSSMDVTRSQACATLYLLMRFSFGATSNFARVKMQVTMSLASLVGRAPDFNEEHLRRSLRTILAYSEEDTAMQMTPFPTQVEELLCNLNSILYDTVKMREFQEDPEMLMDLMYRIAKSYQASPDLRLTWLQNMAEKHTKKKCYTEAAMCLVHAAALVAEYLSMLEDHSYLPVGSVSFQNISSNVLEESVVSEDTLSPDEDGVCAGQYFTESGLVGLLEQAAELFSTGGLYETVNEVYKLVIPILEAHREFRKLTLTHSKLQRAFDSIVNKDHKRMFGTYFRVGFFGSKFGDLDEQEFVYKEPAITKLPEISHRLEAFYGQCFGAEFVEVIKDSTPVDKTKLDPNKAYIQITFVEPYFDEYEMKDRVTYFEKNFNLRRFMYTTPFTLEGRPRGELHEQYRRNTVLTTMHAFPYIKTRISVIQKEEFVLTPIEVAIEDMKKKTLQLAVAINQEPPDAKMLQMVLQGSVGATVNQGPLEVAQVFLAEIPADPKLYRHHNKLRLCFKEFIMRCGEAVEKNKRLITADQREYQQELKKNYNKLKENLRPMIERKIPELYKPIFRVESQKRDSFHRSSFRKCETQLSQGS
UniProt Q13409, whole entry, looked up: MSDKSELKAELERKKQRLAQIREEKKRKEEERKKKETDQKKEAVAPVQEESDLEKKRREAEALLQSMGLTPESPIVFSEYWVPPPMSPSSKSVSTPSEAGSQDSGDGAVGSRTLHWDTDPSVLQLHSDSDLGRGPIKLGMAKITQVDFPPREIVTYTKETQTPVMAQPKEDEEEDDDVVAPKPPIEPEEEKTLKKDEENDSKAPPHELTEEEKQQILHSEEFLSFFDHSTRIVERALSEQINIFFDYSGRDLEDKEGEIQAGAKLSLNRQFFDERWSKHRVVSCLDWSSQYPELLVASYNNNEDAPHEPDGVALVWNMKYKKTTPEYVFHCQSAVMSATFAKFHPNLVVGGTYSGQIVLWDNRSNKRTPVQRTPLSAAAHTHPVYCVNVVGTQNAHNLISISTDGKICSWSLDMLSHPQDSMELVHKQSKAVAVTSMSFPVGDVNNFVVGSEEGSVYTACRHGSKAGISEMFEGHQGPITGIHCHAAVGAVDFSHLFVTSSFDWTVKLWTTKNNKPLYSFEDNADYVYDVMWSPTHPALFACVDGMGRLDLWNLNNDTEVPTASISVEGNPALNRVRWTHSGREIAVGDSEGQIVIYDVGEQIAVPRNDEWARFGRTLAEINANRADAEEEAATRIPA
UniProt Q9H2P9: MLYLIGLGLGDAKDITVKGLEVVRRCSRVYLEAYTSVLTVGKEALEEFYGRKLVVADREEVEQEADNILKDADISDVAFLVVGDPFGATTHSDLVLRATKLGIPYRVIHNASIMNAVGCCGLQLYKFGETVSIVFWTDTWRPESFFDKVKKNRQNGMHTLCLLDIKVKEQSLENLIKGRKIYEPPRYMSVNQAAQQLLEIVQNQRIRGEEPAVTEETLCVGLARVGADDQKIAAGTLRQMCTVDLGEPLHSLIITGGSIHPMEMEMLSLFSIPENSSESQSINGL
UniProt Q9BVJ7: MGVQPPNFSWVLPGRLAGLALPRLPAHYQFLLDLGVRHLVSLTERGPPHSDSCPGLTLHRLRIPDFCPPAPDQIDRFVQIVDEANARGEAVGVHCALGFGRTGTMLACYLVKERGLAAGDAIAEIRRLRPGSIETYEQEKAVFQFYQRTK
UniProt O43598: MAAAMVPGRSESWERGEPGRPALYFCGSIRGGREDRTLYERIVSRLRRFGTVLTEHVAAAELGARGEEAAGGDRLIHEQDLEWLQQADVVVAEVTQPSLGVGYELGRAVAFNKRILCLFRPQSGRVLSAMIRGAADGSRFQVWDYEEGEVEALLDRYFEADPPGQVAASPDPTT
UniProt Q86TI2: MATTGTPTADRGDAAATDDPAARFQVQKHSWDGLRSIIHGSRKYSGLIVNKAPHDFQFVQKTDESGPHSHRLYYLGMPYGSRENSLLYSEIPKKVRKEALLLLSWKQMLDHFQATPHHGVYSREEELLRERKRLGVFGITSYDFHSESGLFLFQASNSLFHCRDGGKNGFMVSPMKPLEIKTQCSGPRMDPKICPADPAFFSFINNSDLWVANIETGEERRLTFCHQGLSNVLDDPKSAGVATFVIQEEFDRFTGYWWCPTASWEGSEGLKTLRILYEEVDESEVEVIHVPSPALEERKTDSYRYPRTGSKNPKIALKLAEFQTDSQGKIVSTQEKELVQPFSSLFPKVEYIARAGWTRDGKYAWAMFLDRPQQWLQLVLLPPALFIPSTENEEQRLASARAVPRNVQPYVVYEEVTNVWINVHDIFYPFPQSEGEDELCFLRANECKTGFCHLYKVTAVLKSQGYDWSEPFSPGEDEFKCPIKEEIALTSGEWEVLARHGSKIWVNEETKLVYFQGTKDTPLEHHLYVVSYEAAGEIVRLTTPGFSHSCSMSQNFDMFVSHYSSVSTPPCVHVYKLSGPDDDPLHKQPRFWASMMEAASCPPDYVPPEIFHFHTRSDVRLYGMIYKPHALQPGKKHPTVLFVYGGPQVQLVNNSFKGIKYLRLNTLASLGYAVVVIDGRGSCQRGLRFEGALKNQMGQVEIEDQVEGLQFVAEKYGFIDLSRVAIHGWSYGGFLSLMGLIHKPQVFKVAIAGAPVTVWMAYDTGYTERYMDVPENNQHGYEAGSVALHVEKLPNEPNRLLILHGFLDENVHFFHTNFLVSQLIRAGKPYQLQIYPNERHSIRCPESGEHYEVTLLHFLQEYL
UniProt Q14919: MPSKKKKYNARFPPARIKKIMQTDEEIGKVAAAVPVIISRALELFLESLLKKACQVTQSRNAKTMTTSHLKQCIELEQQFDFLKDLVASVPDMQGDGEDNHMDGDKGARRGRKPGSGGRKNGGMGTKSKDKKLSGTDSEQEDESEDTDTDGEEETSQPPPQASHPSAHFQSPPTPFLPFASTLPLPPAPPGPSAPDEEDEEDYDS
UniProt Q96EV8: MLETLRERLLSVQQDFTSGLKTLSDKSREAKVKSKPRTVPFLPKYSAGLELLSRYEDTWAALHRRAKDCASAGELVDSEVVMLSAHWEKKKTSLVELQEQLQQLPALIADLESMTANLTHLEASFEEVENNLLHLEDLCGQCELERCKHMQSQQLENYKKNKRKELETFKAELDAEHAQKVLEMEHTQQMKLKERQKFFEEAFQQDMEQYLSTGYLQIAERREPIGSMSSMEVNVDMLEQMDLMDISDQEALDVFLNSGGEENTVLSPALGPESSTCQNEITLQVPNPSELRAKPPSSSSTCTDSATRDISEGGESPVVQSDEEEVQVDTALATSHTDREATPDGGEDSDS
UniProt Q8N5C7: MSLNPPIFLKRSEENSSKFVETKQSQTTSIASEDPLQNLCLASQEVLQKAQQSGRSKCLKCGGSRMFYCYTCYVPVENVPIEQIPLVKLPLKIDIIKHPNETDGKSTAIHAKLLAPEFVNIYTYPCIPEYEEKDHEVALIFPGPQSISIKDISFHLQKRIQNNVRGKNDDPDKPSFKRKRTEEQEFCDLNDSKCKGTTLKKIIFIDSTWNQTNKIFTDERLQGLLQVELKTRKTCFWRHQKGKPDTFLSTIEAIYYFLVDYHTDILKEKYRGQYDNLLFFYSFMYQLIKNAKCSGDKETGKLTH
UniProt P33316: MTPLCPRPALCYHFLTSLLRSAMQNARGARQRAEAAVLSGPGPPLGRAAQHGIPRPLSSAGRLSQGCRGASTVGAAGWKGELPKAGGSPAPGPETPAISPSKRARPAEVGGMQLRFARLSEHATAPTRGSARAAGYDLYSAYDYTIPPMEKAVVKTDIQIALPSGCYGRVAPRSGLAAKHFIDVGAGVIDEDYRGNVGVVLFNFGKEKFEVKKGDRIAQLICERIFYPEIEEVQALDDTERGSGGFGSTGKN

[2] = compound: CC1=C(SC2=C1C(=N[C@H](C3=NN=C(N32)C)CC(=O)N)C4=CC=C(C=C4)Cl)C
In short: as §1

[3] = compound: CC1=C2C(=CC=C1)N=C(N(C2=O)C3=CC=CC=C3C)CN4C=NC5=C(N=CN=C54)N
In short: as §1

[4] = compound: Cc1sc2c(c1C)C(c1ccc(Cl)cc1)=N[C@@H](CC(=O)OC(C)(C)C)c1nnc(C)n1-2
In short: as §1

[5] = compound: c1ccc([C@@H]2C[C@H]2NC2CCNCC2)cc1
In short: as §1

Measured: log2 fold change

DSC2 (UniProt Q02487)
inactive: [1] 0.078 | [2] -0.032 | [3] 0.068 | [4] 0.025 | [5] -0.04

ECI1 (UniProt P42126)
inactive: [1] 0.023 | [2] 0.09 | [3] 0.089 | [4] -0.083 | [5] -0.011

DNAJB11 (UniProt Q9UBS4)
inactive: [1] 0.009 | [2] 0 | [3] -0.02 | [4] 0.042 | [5] 0.041

DUS2 (UniProt Q9NX74)
inactive: [1] 0.024 | [2] 0.055 | [3] 0.109 | [4] -0.087 | [5] -0.023

DNAJC21 isoform 3 (UniProt Q5F1R6)
inactive: [1] 0.051 | [2] -0.074 | [3] -0.067 | [4] 0.074 | [5] -0.087

DNAJB4 (UniProt Q9UDY4)
inactive: [1] 0.004 | [2] 0.032 | [3] 0.075 | [4] 0.025 | [5] 0.007

DRG1 (UniProt Q9Y295)
inactive: [1] 0.031 | [2] -0.021 | [3] 0.008 | [4] 0.001 | [5] -0.001

DNAJC3 (UniProt Q13217)
inactive: [1] 0.039 | [2] -0.037 | [3] -0.064 | [4] 0.006 | [5] 0

ECHS1 (UniProt P30084)
inactive: [1] -0.017 | [2] 0.072 | [3] -0.052 | [4] 0.01 | [5] -0.05

DOHH (UniProt Q9BU89)
inactive: [1] 0.218 | [2] 0.072 | [3] -0.062 | [4] 0.031 | [5] -0.088

DPY19L3 (UniProt Q6ZPD9)
inactive: [1] 0.028 | [2] 0.133 | [3] -0.073 | [4] -0.172 | [5] 0.099

DNAJC19 (UniProt Q96DA6)
inactive: [1] 0.025 | [2] 0.021 | [3] 0.05 | [4] 0 | [5] -0.041

EDARADD (UniProt Q8WWZ3)
inactive: [1] 0.004 | [2] 0.05 | [3] 0.084 | [4] -0.017 | [5] -0.026

DUS3L (UniProt Q96G46)
inactive: [1] 0.073 | [2] 0.04 | [3] -0.057 | [4] -0.007 | [5] 0.007

DNAJC1 (UniProt Q96KC8)
inactive: [1] -0.024 | [2] 0.054 | [3] 0.08 | [4] -0.015 | [5] 0.052

DOCK8 (UniProt Q8NF50)
inactive: [1] 0.096 | [2] -0.223 | [3] -0.01 | [4] 0.152 | [5] -0.087

DOCK9 isoform 4 (UniProt Q9BZ29)
inactive: [1] -0.05 | [2] 0.02 | [3] 0.153 | [4] 0 | [5] 0.08

DYNC1I2 isoform 5 (UniProt Q13409)
inactive: [1] 0.019 | [2] 0.021 | [3] -0.006 | [4] -0.033 | [5] -0.019

DNPEP (UniProt Q9ULA0)
inactive: [1] 0.035 | [2] 0.022 | [3] 0.015 | [4] -0.03 | [5] 0.029

DPH5 isoform 5 (UniProt Q9H2P9)
inactive: [1] -0.025 | [2] 0.054 | [3] 0.092 | [4] -0.009 | [5] 0

DUSP12 (UniProt Q9UNI6)
inactive: [1] -0.069 | [2] 0.045 | [3] 0.076 | [4] 0.011 | [5] -0.073

DUSP23 (UniProt Q9BVJ7)
inactive: [1] -0.042 | [2] 0.179 | [3] 0.144 | [4] -0.179 | [5] 0

DNPH1 (UniProt O43598)
inactive: [1] 0.013 | [2] 0.024 | [3] -0.001 | [4] -0.039 | [5] -0.027

DPP9 isoform 2 (UniProt Q86TI2)
inactive: [1] -0.045 | [2] 0.086 | [3] 0.05 | [4] 0 | [5] -0.065

DNAJB12 (UniProt Q9NXW2)
inactive: [1] -0.044 | [2] 0.027 | [3] 0.081 | [4] -0.011 | [5] 0.011

DNAJC8 (UniProt O75937)
inactive: [1] -0.017 | [2] 0.043 | [3] 0.053 | [4] -0.01 | [5] 0

EBNA1BP2 (UniProt Q99848)
inactive: [1] 0.118 | [2] -0.378 | [3] -0.269 | [4] 0.306 | [5] -0.045

EDF1 (UniProt O60869)
inactive: [1] 0.003 | [2] 0.008 | [3] 0.013 | [4] -0.011 | [5] 0.018

ECSIT (UniProt Q9BQ95)
inactive: [1] 0.011 | [2] 0.027 | [3] 0.053 | [4] -0.008 | [5] 0.055

Two consecutive records already listed:
EBNA1BP2 (UniProt Q99848)
inactive: [1] 0.118 | [2] -0.378 | [3] -0.269 | [4] 0.306 | [5] -0.045

EDF1 (UniProt O60869)
inactive: [1] 0.003 | [2] 0.008 | [3] 0.013 | [4] -0.011 | [5] 0.018

(further entries)

DNAJC12 (UniProt Q9UKB3)
inactive: [1] 0.028 | [2] 0.028 | [3] 0.039 | [4] 0.018 | [5] 0.039

DUSP3 (UniProt P51452)
inactive: [1] -0.055 | [2] 0.134 | [3] 0.021 | [4] -0.024 | [5] -0.005

ECHDC1 (UniProt Q9NTX5)
inactive: [1] 0.017 | [2] 0.018 | [3] 0.035 | [4] 0.003 | [5] 0.049

DYNC1LI1 (UniProt Q9Y6G9)
inactive: [1] -0.023 | [2] 0.019 | [3] -0.001 | [4] -0.002 | [5] -0.015

DPH3 (UniProt Q96FX2)
inactive: [1] -0.477 | [2] -0.038 | [3] 0.062 | [4] -0.008 | [5] 0.105

DYNLL2 (UniProt Q96FJ2)
inactive: [1] 0.086 | [2] 0.182 | [3] 0.142 | [4] -0.171 | [5] -0.069

DST (UniProt Q03001)
inactive: [1] 0.089 | [2] 0.156 | [3] 0.135 | [4] -0.04 | [5] -0.047

DNAJA3 (UniProt Q96EY1)
inactive: [1] -0.011 | [2] -0.018 | [3] 0.039 | [4] 0.065 | [5] -0.054

DNAJC11 (UniProt Q9NVH1)
inactive: [1] -0.02 | [2] 0.027 | [3] 0.055 | [4] -0.055 | [5] -0.016

E2F3 (UniProt O00716)
inactive: [1] -0.041 | [2] 0.031 | [3] 0.192 | [4] -0.005 | [5] 0.08

Random excerpt: 2 entries already listed, in no set order.
DNAJA3 (UniProt Q96EY1)
inactive: [1] -0.011 | [2] -0.018 | [3] 0.039 | [4] 0.065 | [5] -0.054

DNAJC11 (UniProt Q9NVH1)
inactive: [1] -0.02 | [2] 0.027 | [3] 0.055 | [4] -0.055 | [5] -0.016

Next part:

DNASE2 (UniProt O00115)
inactive: [1] 0.018 | [2] 0.003 | [3] 0.021 | [4] 0.009 | [5] 0.051

DRAP1 isoform 2 (UniProt Q14919)
inactive: [1] 0.016 | [2] 0.024 | [3] -0.007 | [4] -0.006 | [5] 0.01

EAF1 (UniProt Q96JC9)
inactive: [1] 0.064 | [2] -0.091 | [3] -0.059 | [4] 0.119 | [5] 0.129

DPY30 (UniProt Q9C005)
inactive: [1] 0.14 | [2] -0.195 | [3] -0.071 | [4] -0.172 | [5] -0.165

DOLPP1 (UniProt Q86YN1)
inactive: [1] -0.028 | [2] 0.02 | [3] -0.107 | [4] 0.062 | [5] 0.153

DTNBP1 (UniProt Q96EV8)
inactive: [1] -0.033 | [2] 0.031 | [3] 0.02 | [4] 0.001 | [5] 0.013

ECD isoform 3 (UniProt O95905)
inactive: [1] -0.023 | [2] 0.112 | [3] 0.098 | [4] 0.107 | [5] 0.011

DOK3 (UniProt Q7L591)
inactive: [1] -0.049 | [2] 0.116 | [3] 0.109 | [4] -0.091 | [5] 0.012

DPH1 (UniProt Q9BZG8)
inactive: [1] -0.018 | [2] 0.001 | [3] -0.037 | [4] 0.023 | [5] 0.035

DNAJC13 (UniProt O75165)
inactive: [1] -0.001 | [2] 0.01 | [3] 0.034 | [4] 0.033 | [5] -0.005

DTWD1 (UniProt Q8N5C7)
inactive: [1] -0.051 | [2] -0.011 | [3] 0.152 | [4] -0.056 | [5] 0.07

DPP3 (UniProt Q9NY33)
inactive: [1] -0.033 | [2] 0.049 | [3] 0.051 | [4] -0.043 | [5] -0.05

DUT (UniProt P33316)
inactive: [1] -0.048 | [2] 0.024 | [3] 0.06 | [4] -0.007 | [5] -0.007

EDEM2 (UniProt Q9BV94)
inactive: [1] 0.194 | [2] 0.042 | [3] 0.013 | [4] -0.046 | [5] 0.012

From the supplement of paper PMC10849652
